# Data taken from the supplement of paper PMC6411743.
# Sequences of proteins named here, by UniProt entry; tags and fusion partners are left off. A change or cut given only in a name is not applied to a line headed by its entry.
# UniProt Q6R327, whole entry: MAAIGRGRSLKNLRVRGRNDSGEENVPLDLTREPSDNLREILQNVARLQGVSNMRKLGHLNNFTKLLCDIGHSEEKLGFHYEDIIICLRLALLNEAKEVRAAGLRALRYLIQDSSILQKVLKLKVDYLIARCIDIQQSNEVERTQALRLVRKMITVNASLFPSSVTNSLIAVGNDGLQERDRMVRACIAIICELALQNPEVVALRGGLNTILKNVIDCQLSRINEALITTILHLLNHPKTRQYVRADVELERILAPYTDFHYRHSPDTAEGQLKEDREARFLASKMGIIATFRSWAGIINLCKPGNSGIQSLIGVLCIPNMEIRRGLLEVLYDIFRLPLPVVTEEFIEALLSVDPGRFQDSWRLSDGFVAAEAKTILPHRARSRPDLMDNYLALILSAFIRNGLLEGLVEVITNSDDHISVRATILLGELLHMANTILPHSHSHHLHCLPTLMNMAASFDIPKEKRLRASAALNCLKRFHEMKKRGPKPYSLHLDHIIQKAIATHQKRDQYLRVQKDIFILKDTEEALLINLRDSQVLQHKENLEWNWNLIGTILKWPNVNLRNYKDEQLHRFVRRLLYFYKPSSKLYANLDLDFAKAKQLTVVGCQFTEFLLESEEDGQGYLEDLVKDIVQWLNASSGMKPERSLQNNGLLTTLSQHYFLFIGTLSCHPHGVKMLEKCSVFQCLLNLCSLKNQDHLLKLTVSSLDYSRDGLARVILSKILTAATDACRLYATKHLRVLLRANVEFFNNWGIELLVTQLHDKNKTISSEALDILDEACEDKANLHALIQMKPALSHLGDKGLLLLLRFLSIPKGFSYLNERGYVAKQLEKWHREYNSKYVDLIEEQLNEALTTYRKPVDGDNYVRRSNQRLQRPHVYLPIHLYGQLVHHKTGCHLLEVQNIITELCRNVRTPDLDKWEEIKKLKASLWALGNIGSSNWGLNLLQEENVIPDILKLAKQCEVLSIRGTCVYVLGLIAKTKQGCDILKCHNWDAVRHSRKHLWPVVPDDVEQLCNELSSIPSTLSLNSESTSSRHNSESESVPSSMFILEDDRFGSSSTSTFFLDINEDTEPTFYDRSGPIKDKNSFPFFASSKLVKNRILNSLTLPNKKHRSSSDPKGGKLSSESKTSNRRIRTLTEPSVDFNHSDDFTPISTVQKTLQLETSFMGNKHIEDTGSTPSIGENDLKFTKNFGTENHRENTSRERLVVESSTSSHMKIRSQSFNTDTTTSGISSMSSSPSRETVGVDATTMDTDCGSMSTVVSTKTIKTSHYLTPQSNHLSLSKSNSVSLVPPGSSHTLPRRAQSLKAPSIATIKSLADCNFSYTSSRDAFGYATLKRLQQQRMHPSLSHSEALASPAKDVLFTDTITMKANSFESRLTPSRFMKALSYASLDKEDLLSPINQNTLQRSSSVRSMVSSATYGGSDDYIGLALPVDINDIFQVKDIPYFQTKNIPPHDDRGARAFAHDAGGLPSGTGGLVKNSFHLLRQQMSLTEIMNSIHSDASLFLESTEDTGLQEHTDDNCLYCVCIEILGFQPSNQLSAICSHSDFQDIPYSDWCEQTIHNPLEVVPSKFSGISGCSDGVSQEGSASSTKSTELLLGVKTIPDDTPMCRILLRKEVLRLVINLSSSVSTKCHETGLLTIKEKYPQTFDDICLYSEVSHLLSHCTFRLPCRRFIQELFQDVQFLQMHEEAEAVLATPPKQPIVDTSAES
# UniProt Q6SPF0: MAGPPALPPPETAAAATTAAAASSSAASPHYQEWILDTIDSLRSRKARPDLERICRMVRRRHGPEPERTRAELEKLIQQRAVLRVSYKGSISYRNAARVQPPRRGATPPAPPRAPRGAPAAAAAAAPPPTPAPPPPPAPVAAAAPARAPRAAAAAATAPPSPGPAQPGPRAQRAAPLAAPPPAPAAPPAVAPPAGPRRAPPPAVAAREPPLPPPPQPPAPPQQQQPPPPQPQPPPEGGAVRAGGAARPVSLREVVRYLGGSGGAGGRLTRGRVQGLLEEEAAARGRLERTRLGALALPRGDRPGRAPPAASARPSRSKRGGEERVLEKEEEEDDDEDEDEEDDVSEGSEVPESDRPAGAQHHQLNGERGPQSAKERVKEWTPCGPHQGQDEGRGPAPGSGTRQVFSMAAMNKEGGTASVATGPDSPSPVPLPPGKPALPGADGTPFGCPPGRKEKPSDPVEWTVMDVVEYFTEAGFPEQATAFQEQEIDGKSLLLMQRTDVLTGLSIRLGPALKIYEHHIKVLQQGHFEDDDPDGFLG
# UniProt Q86TP1: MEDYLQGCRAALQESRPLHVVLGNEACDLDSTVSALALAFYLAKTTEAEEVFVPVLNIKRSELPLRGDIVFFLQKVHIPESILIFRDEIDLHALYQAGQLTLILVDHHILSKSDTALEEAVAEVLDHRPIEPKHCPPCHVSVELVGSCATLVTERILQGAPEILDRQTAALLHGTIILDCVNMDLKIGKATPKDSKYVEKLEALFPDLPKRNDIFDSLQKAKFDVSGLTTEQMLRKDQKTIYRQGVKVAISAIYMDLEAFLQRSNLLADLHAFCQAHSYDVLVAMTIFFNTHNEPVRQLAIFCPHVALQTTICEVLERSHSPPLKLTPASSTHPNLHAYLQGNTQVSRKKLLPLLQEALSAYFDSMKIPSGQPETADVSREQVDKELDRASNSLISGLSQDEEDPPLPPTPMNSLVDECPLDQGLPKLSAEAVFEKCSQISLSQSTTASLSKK
# UniProt Q86TI2: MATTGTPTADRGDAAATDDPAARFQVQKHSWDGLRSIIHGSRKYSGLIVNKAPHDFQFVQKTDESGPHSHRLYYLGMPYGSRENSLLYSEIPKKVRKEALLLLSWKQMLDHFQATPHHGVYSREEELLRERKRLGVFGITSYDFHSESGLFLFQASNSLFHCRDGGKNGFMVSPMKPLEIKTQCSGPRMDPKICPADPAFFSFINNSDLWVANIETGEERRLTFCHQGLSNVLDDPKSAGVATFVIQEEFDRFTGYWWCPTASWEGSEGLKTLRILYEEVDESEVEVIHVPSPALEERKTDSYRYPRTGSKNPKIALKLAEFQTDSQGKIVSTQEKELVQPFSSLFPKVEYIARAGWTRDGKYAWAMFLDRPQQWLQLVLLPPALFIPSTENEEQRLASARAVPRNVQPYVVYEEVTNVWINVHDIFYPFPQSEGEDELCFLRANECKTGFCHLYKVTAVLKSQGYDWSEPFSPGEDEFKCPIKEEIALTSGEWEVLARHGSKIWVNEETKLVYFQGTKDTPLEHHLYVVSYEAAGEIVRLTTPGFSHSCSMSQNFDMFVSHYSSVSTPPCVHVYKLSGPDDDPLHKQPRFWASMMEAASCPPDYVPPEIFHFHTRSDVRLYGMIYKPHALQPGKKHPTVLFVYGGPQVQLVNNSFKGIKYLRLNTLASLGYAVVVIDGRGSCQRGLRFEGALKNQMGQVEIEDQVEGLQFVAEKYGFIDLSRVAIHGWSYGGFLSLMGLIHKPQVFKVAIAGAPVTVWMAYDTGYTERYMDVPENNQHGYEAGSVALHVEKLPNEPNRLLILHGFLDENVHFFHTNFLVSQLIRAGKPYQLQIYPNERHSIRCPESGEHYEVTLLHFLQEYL
# UniProt Q8IUH3: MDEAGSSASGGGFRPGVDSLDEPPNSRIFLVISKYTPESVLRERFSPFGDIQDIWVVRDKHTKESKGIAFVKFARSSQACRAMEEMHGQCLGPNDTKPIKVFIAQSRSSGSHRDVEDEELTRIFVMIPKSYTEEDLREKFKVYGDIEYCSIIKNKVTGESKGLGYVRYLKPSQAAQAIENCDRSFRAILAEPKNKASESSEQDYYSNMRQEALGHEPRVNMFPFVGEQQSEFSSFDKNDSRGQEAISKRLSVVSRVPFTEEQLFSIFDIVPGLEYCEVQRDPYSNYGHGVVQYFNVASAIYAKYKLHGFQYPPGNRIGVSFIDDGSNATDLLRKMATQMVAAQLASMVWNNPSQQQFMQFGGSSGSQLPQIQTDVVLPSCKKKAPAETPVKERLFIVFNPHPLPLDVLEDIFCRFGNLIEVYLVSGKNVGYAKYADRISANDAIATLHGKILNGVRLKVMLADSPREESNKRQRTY
# UniProt Q6PHR2: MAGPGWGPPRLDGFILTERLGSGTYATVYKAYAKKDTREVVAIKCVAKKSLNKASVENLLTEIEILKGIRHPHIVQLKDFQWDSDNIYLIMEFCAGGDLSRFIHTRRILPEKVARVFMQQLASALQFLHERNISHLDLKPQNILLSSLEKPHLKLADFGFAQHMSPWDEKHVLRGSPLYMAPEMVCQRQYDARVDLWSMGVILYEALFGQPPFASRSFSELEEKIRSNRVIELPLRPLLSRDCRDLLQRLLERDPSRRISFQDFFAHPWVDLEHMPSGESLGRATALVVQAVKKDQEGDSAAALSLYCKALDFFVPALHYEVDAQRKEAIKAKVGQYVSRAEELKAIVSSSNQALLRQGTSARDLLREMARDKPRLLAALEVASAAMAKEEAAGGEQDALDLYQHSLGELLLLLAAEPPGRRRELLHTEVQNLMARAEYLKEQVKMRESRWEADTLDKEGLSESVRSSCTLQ
# UniProt Q86U38: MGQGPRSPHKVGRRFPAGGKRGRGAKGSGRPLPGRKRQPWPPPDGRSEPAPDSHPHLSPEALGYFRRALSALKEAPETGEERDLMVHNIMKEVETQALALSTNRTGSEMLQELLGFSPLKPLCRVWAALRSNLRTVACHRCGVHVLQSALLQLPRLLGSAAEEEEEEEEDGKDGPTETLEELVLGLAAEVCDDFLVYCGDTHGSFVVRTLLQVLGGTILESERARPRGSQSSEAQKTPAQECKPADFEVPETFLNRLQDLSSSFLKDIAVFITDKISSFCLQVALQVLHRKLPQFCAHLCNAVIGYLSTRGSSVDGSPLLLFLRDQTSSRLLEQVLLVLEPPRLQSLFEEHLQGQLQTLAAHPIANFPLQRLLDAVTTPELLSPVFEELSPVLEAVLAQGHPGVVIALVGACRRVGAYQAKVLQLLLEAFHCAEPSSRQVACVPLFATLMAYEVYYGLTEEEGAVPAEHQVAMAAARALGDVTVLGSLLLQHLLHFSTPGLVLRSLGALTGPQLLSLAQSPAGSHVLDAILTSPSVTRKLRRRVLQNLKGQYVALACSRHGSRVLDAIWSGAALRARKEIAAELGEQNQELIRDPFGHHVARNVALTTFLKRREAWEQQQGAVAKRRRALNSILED
# UniProt Q7Z7L7: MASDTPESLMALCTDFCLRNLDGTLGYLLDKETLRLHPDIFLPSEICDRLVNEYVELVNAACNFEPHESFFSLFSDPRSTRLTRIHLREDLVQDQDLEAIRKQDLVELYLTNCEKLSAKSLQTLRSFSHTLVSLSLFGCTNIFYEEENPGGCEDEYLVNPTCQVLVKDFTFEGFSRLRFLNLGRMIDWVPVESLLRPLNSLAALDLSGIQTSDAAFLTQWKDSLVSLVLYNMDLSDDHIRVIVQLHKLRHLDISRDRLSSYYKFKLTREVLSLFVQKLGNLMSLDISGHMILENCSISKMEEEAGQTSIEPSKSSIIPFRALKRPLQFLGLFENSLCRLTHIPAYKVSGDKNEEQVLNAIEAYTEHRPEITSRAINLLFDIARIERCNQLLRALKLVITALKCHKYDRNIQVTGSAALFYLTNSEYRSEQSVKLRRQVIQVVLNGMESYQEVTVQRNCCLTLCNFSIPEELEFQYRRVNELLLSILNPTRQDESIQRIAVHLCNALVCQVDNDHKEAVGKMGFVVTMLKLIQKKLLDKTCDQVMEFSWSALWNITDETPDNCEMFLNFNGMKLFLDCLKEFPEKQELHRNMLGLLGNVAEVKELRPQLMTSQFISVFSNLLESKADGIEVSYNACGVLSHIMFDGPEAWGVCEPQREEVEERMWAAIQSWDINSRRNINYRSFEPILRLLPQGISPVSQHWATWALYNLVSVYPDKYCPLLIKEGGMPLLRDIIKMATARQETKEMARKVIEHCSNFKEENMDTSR
# UniProt Q7Z434: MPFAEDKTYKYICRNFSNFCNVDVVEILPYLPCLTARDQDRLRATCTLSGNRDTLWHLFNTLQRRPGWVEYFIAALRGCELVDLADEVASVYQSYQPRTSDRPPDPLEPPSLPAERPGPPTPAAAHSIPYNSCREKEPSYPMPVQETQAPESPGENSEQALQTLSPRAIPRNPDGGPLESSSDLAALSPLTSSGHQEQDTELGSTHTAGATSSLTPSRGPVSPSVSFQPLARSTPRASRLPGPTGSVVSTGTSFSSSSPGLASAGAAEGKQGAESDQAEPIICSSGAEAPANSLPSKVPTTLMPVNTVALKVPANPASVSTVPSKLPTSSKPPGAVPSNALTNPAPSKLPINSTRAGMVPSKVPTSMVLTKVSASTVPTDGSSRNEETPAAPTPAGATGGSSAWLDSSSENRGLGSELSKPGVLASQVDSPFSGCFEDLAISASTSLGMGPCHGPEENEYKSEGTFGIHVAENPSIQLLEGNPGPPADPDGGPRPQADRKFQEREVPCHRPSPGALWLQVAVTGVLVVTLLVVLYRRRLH
# ± gives the standard deviation of the averaged measurements. The list shows a part of the results, in another mix than the full data.
# Compound: Nc1ncnc2c1ncn2[C@@H]1O[C@H](COP(=O)(O)OP(=O)(O)OP(=O)(O)O)[C@@H](O)[C@H]1O [adenosine triphosphate]
# Assay: NP40-soluble protein abundance relative to vehicle (solubility fold change) (ratio); higher = more soluble protein in presence of ATP
# Procedure, shortened: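 Jurkat crude lysate (Dounce-homogenised) was treated with eight concentrations from 0.1 to 10 mM for 10 min at room temperature, then 3 min at 37 °C. It was solubilised with 0.8% NP40 and benzonase (60 min, 4 °C) and ultracentrifuged, and the supernatant was TMT-labelled for LC-MS/MS. Intensities were vsn-normalised, and the value is the fold change against the NP40-processed vehicle per replicate, from three independent experiments.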
Target,NP40-soluble protein abundance (concentration: 1mM),NP40-soluble protein abundance (concentration: 2mM),NP40-soluble protein abundance (concentration: 4mM),NP40-soluble protein abundance (concentration: 6mM),NP40-soluble protein abundance (concentration: 8mM),NP40-soluble protein abundance (concentration: 10mM)
NUDT18 (UniProt Q6ZVK8),0.958 ± 0.024,0.976 ± 0.077,0.98 ± 0.076,0.987 ± 0.17,0.994 ± 0.072,1.03 ± 0.086
UniProt Q86YS7 and related entries,1.01 ± 0.029,1.01 ± 0.027,1.02 ± 0.062,1 ± 0.014,0.996 ± 0.0069,1 ± 0.019
UniProt Q6R327 and related entries,1.23 ± 0.024,1.2 ± 0.042,1.18 ± 0.05,1.12 ± 0.086,1.16 ± 0.066,1.17 ± 0.086
UniProt Q7Z7A3,0.952 ± 0.18,1.12 ± 0.3,1.03 ± 0.14,0.958 ± 0.2,1.04 ± 0.16,1.02 ± 0.03
UniProt Q6ZVM7 and related entries,0.95 ± 0.047,0.988 ± 0.029,1.01 ± 0.091,1.02 ± 0.11,0.939 ± 0.046,0.947 ± 0.034
UniProt Q71RG4 and related entries,0.952 ± 0.065,0.968 ± 0.057,0.975 ± 0.018,0.951 ± 0.046,0.897 ± 0.027,0.883 ± 0.064
UniProt Q6VMQ6 and related entries,0.944 ± 0.068,0.946 ± 0.029,0.932 ± 0.031,0.985 ± 0.053,0.925 ± 0.02,0.95 ± 0.021
TMEM173 (UniProt Q86WV6),0.998 ± 0.019,0.984 ± 0.021,0.963 ± 0.023,1 ± 0.053,0.969 ± 0.021,0.974 ± 0.03
UniProt Q86VX2 and related entries,0.984 ± 0.16,0.938 ± 0.097,0.945 ± 0.072,0.935 ± 0.095,0.975 ± 0.085,0.941 ± 0.075
UniProt Q86VP1-2|B8ZZD4,0.96 ± 0.024,0.953 ± 0.016,0.9748 ± 0.0033,0.9677 ± 0.0042,0.9396 ± 0.007,0.9801 ± 0.003
UniProt Q6PIW4 and related entries,1.05 ± 0.065,0.994 ± 0.056,0.975 ± 0.033,0.9608 ± 0.0092,0.992 ± 0.061,0.994 ± 0.052
UniProt Q6ZN18 and related entries,1.05 ± 0.1,1.09 ± 0.14,1.1 ± 0.062,1.12 ± 0.033,0.99 ± 0.15,1 ± 0.016
CHMP1B (UniProt Q7LBR1),0.963 ± 0.062,0.991 ± 0.022,0.945 ± 0.061,0.981 ± 0.057,0.94 ± 0.029,0.902 ± 0.042
UniProt Q6RFH5 and related entries,1.03 ± 0.047,1.03 ± 0.05,1.12 ± 0.083,1.16 ± 0.038,1.1 ± 0.12,1.13 ± 0.092
SAMD1 (UniProt Q6SPF0),0.933 ± 0.04,0.951 ± 0.095,0.951 ± 0.099,0.948 ± 0.12,0.93 ± 0.068,0.9 ± 0.035
CENPQ (UniProt Q7L2Z9),1.09 ± 0.14,1.128 ± 0.0069,1.26 ± 0.17,1.31 ± 0.25,1.42 ± 0.14,1.33 ± 0.089
CES3 (UniProt Q6UWW8),0.972 ± 0.063,1 ± 0.059,0.935 ± 0.04,1.02 ± 0.065,0.932 ± 0.068,0.925 ± 0.067
UniProt Q7L592,0.964 ± 0.031,0.985 ± 0.02,0.963 ± 0.023,0.948 ± 0.036,0.945 ± 0.054,0.9682 ± 0.007
SDCCAG8 (UniProt Q86SQ7),0.999 ± 0.011,0.99 ± 0.041,1.02 ± 0.06,1.03 ± 0.063,0.944 ± 0.042,0.945 ± 0.043
UniProt Q86TP1 and related entries,0.995 ± 0.013,1.03 ± 0.064,1.03 ± 0.022,0.937 ± 0.013,0.961 ± 0.015,0.991 ± 0.033

Target,NP40-soluble protein abundance (concentration: 1mM),NP40-soluble protein abundance (concentration: 2mM),NP40-soluble protein abundance (concentration: 4mM),NP40-soluble protein abundance (concentration: 6mM),NP40-soluble protein abundance (concentration: 8mM),NP40-soluble protein abundance (concentration: 10mM)
UniProt Q6STE5 and related entries,1.28 ± 0.29,1.2 ± 0.079,1.33 ± 0.12,1.25 ± 0.13,1.32 ± 0.1,1.3 ± 0.082
RINL (UniProt Q6ZS11),1.02 ± 0.029,0.987 ± 0.032,0.96737 ± 0.00041,1.02 ± 0.013,0.986 ± 0.035,1.02 ± 0.015
LDB1 (UniProt Q86U70),0.953 ± 0.011,0.957 ± 0.046,0.933 ± 0.049,0.954 ± 0.029,0.945 ± 0.032,0.937 ± 0.022
ZFYVE16 (UniProt Q7Z3T8),1.01 ± 0.032,0.985 ± 0.028,0.992 ± 0.015,1.019 ± 0.0042,0.929 ± 0.0072,0.961 ± 0.023
UniProt Q7Z6K3 and related entries,0.9836 ± 0.0097,0.994 ± 0.027,0.962 ± 0.047,0.973 ± 0.011,0.968 ± 0.016,0.947 ± 0.05
KCTD9 (UniProt Q7L273),0.941 ± 0.043,0.944 ± 0.014,0.934 ± 0.019,0.981 ± 0.029,0.904 ± 0.032,0.928 ± 0.041
DPP9 (UniProt Q86TI2),1.05 ± 0.12,1.02 ± 0.12,1.01 ± 0.095,0.937 ± 0.14,1.03 ± 0.059,1.01 ± 0.073
MICAL3 (UniProt Q7RTP6),0.981 ± 0.08,0.966 ± 0.014,0.998 ± 0.046,0.921 ± 0.025,0.954 ± 0.068,0.916 ± 0.035
UniProt Q86XP3 and related entries,1.07 ± 0.019,1.06 ± 0.019,1.1 ± 0.013,1.1 ± 0.028,1.14 ± 0.021,1.14 ± 0.033
UniProt Q8IUH3 and related entries,1.04 ± 0.069,1.05 ± 0.062,1.08 ± 0.048,1.07 ± 0.059,1.05 ± 0.079,1.08 ± 0.066
UniProt Q86TV6 and related entries,0.927 ± 0.013,0.888 ± 0.016,0.964 ± 0.066,0.881 ± 0.12,0.95 ± 0.13,0.991 ± 0.041
UniProt Q6PHR2 and related entries,1.06 ± 0.061,1.06 ± 0.05,1.03 ± 0.061,1.03 ± 0.092,1.05 ± 0.084,0.993 ± 0.086
UniProt Q86XK3 and related entries,1.11 ± 0.051,1.07 ± 0.037,1.18 ± 0.095,1.09 ± 0.12,1.07 ± 0.039,1.017 ± 0.0071
UniProt Q7RTN6 and related entries,0.937 ± 0.16,0.964 ± 0.1,0.912 ± 0.27,0.877 ± 0.17,0.98 ± 0.11,0.993 ± 0.077
HS2ST1 (UniProt Q7LGA3),1.11 ± 0.071,1.15 ± 0.015,1.22 ± 0.052,1.16 ± 0.094,1.26 ± 0.027,1.31 ± 0.025
GPRIN1 (UniProt Q7Z2K8),0.961 ± 0.058,0.946 ± 0.03,1.02 ± 0.023,0.994 ± 0.086,0.955 ± 0.025,0.935 ± 0.049
RABEPK (UniProt Q7Z6M1),0.991 ± 0.024,0.967 ± 0.043,1.02 ± 0.044,0.999 ± 0.05,0.989 ± 0.055,0.969 ± 0.052
GPAT4 (UniProt Q86UL3),1.05 ± 0.04,1.01 ± 0.066,1.02 ± 0.072,0.979 ± 0.049,1.02 ± 0.042,1.05 ± 0.049
UniProt Q7Z406 and related entries,1.01 ± 0.22,1.02 ± 0.1,1.04 ± 0.14,0.991 ± 0.2,1.08 ± 0.12,1.02 ± 0.074
IRF2BP1 (UniProt Q8IU81),0.9545 ± 0.0067,0.971 ± 0.025,0.967 ± 0.027,0.969 ± 0.02,0.949 ± 0.033,0.978 ± 0.029

# Some of the entries above, set out differently:
Target	NP40-soluble protein abundance (concentration: 1mM)	NP40-soluble protein abundance (concentration: 2mM)	NP40-soluble protein abundance (concentration: 4mM)	NP40-soluble protein abundance (concentration: 6mM)	NP40-soluble protein abundance (concentration: 8mM)	NP40-soluble protein abundance (concentration: 10mM)
CHMP1B (UniProt Q7LBR1)	0.963 ± 0.062	0.991 ± 0.022	0.945 ± 0.061	0.981 ± 0.057	0.94 ± 0.029	0.902 ± 0.042
CENPQ (UniProt Q7L2Z9)	1.09 ± 0.14	1.128 ± 0.0069	1.26 ± 0.17	1.31 ± 0.25	1.42 ± 0.14	1.33 ± 0.089
UniProt Q8IUH3 and related entries	1.04 ± 0.069	1.05 ± 0.062	1.08 ± 0.048	1.07 ± 0.059	1.05 ± 0.079	1.08 ± 0.066
UniProt Q7RTN6 and related entries	0.937 ± 0.16	0.964 ± 0.1	0.912 ± 0.27	0.877 ± 0.17	0.98 ± 0.11	0.993 ± 0.077

# Going on with the list:

Target,NP40-soluble protein abundance (concentration: 1mM),NP40-soluble protein abundance (concentration: 2mM),NP40-soluble protein abundance (concentration: 4mM),NP40-soluble protein abundance (concentration: 6mM),NP40-soluble protein abundance (concentration: 8mM),NP40-soluble protein abundance (concentration: 10mM)
AACS (UniProt Q86V21),1.01 ± 0.055,1 ± 0.048,0.968 ± 0.067,0.995 ± 0.096,1.01 ± 0.057,0.951 ± 0.054
UniProt Q7Z7A4 and related entries,0.992 ± 0.11,0.995 ± 0.089,0.982 ± 0.029,0.872 ± 0.13,0.954 ± 0.032,1 ± 0.058
UniProt Q7Z6B0 and related entries,0.954 ± 0.068,0.968 ± 0.035,0.938 ± 0.032,0.996 ± 0.04,0.9161 ± 0.0034,0.94 ± 0.025
CYFIP1 (UniProt Q7L576),1.04 ± 0.14,0.994 ± 0.098,1.01 ± 0.051,0.928 ± 0.12,1.03 ± 0.044,1 ± 0.037
PARG (UniProt Q86W56),0.9568 ± 0.0042,0.996 ± 0.025,0.994 ± 0.044,0.998 ± 0.019,0.979 ± 0.042,0.987 ± 0.031
UniProt Q8IUQ4 and related entries,1.03 ± 0.062,0.995 ± 0.048,1.029 ± 0.0098,0.915 ± 0.1,1.04 ± 0.079,0.975 ± 0.08
UniProt Q86U38,0.98 ± 0.036,0.996 ± 0.075,1.07 ± 0.095,1.04 ± 0.081,1.05 ± 0.082,1.13 ± 0.097
UniProt Q7Z7L7,0.96049 ± 0.00035,0.985 ± 0.049,1.02 ± 0.045,0.904 ± 0.026,0.965 ± 0.011,1.04 ± 0.07
APOOL (UniProt Q6UXV4),0.959 ± 0.11,0.984 ± 0.063,1.01 ± 0.073,1.06 ± 0.046,1.04 ± 0.091,1.05 ± 0.063
MTDH (UniProt Q86UE4),1.09 ± 0.11,1.19 ± 0.05,1.3 ± 0.068,1.49 ± 0.11,1.45 ± 0.047,1.54 ± 0.074
TMED4 (UniProt Q7Z7H5),0.923 ± 0.023,0.977 ± 0.034,0.926 ± 0.038,0.963 ± 0.035,0.949 ± 0.043,0.946 ± 0.051
Q76L82 and related entries (UniProt Q8IXJ9+Q76L82),1.11 ± 0.081,1.04 ± 0.11,1.03 ± 0.18,1.09 ± 0.15,0.994 ± 0.16,1.1 ± 0.15
UniProt Q8IUF8,1.14 ± 0.074,1.19 ± 0.055,1.2 ± 0.03,1.19 ± 0.085,1.31 ± 0.038,1.27 ± 0.05
GLCCI1 (UniProt Q86VQ1),0.995 ± 0.085,0.973 ± 0.077,1.05 ± 0.087,0.997 ± 0.053,0.973 ± 0.069,0.982 ± 0.096
UniProt Q7Z434 and related entries,0.98 ± 0.026,0.975 ± 0.014,0.948 ± 0.023,0.9759 ± 0.0053,0.921 ± 0.039,0.9277 ± 0.0053
UniProt Q86X76-2,1.03 ± 0.12,1 ± 0.1,0.999 ± 0.072,0.925 ± 0.11,1 ± 0.058,0.991 ± 0.045
UniProt Q7Z333 and related entries,1.14 ± 0.11,1.1 ± 0.099,1.09 ± 0.047,1.08 ± 0.16,1.032 ± 0.0057,1.09 ± 0.074
UBE2Q1 (UniProt Q7Z7E8),0.959 ± 0.045,0.972 ± 0.036,0.934 ± 0.037,0.955 ± 0.054,0.932 ± 0.05,0.964 ± 0.019
UniProt Q86UV5 and related entries,1.03 ± 0.07,1.02 ± 0.062,1 ± 0.047,0.973 ± 0.08,1.02 ± 0.039,0.996 ± 0.027
NFXL1 (UniProt Q6ZNB6),1.03 ± 0.061,1.07 ± 0.04,1.1 ± 0.096,1.15 ± 0.047,1.22 ± 0.08,1.12 ± 0.028
